# The list is a part of this screen's results and no random one: its compounds were picked by chemical class. Not every dose and run of a compound is shown. T/C is the treated group as % of the vehicle group. Some entries give survivors of the animals treated and no T/C: the source files T/C as zero there, which appears to mark a toxic dose or a test without result, not a measured value. Some doses without a T/C left all or most animals alive at the check, yet need not have been tolerated: survival well below the control is almost never listed, so the zero probably covers shortened survival too. Counts of survivors are from the toxicity check (mostly the fifth day) where no day follows; animals may have died later. Schedules are NCI's codes, taken here to give the interval after Q, in days (D) or hours (H), and the number of doses after X. Some complexes appear as separate parts, the way the source draws them; their charges need not add up. For survival time, this PubChem deposit counts one and a half times the control or more as active, and values a quarter to a half above the control carry no call in these data; other NCI protocols may use other cut-offs. Some doses were run more than once; their values stand side by side, smallest first. Some entries show no survivor count and are marked so; the dose need not have been tolerated.
# Test system: BDF1 mice, P388 leukemia ip, median survival T/C
# Experiment: NCI In Vivo Anticancer Drug Screen. Data for tumor model P388 Leukemia (intraperitoneal) in B6D2F1 (BDF1) mice
# Settings: T/C endpoint: median survival time, higher T/C = longer survival
# Summary of the method: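 Steps: implant the tumour, treat one group with compound and another with vehicle, record survival, then divide treated by control.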
# [1] = dose: 6.0 mg/kg/injection, schedule: Q01DX009 (ip), vehicle: Klucel (hydroxypropylcellulose) (HPC)
# [2] = dose: 50.0 mg/kg/injection, schedule: Q01DX009 (ip), vehicle: Klucel (hydroxypropylcellulose) (HPC)
# [3] = dose: 100.0 mg/kg/injection, schedule: Q01DX009 (ip), vehicle: Klucel (hydroxypropylcellulose) (HPC)
# [4] = dose: 50.0 mg/kg/injection, schedule: Q01DX009 (ip), vehicle: saline with Tween-80
# [5] = dose: 100.0 mg/kg/injection, schedule: Q01DX009 (ip), vehicle: saline with Tween-80
# [6] = dose: 50.0 mg/kg/injection, schedule: Q01DX005 (ip), vehicle: saline with Tween-80
# [7] = dose: 200.0 mg/kg/injection, schedule: Q01DX009 (ip), vehicle: Klucel (hydroxypropylcellulose) (HPC)
smiles,measurement,setting,value
O=[N+]([O-])c1cc([N+](=O)[O-])c(/C=C/c2ccccc2)c([N+](=O)[O-])c1,T/C,"dose: 1.5 mg/kg/injection, schedule: Q01DX009 (ip), vehicle: Klucel (hydroxypropylcellulose) (HPC)",100 % of control
same,T/C,"dose: 3.0 mg/kg/injection, schedule: Q01DX009 (ip), vehicle: Klucel (hydroxypropylcellulose) (HPC)",87 % of control
same,T/C,[1],87 % of control
same,survivor count,[1],6 of 6
same,T/C,"dose: 12.0 mg/kg/injection, schedule: Q01DX009 (ip), vehicle: Klucel (hydroxypropylcellulose) (HPC)",87 % of control
same,T/C,"dose: 25.0 mg/kg/injection, schedule: Q01DX009 (ip), vehicle: Klucel (hydroxypropylcellulose) (HPC)",87 and 89 % of control
same,T/C,"dose: 25.0 mg/kg/injection, schedule: Q04DX003 (ip), vehicle: Klucel (hydroxypropylcellulose) (HPC)",95 % of control
same,survivor count,[2],6 of 6
same,T/C,"dose: 50.0 mg/kg/injection, schedule: Q04DX003 (ip), vehicle: Klucel (hydroxypropylcellulose) (HPC)",95 % of control
same,survivor count,[3],6 of 6
same,survivor count,"dose: 100.0 mg/kg/injection, schedule: Q04DX003 (ip), vehicle: Klucel (hydroxypropylcellulose) (HPC)",6 of 6
Cn1cc(N(CCCl)CCCl)c(=O)[nH]c1=O,T/C,"dose: 0.14 mg/kg/injection, schedule: Q01DX009 (ip), vehicle: saline",118 % of control
same,T/C,"dose: 0.21 mg/kg/injection, schedule: Q01DX009 (ip), vehicle: saline",118 % of control
same,T/C,"dose: 0.33 mg/kg/injection, schedule: Q01DX009 (ip), vehicle: saline",194 % of control
same,T/C,"dose: 0.4 mg/kg/injection, schedule: Q04DX003 (ip), vehicle: saline",127 % of control
same,T/C,"dose: 0.5 mg/kg/injection, schedule: Q01DX009 (ip), vehicle: saline",215 % of control
same,T/C,"dose: 0.58 mg/kg/injection, schedule: Q01DX009 (ip), vehicle: saline",180 % of control
same,T/C,"dose: 0.76 mg/kg/injection, schedule: Q01DX009 (ip), vehicle: saline",195 and 200 % of control
same,T/C,"dose: 0.8 mg/kg/injection, schedule: Q04DX003 (ip), vehicle: saline",227 % of control
same,T/C,"dose: 0.89 mg/kg/injection, schedule: Q01DX001 (ip), vehicle: saline",110 % of control
same,T/C,"dose: 1.05 mg/kg/injection, schedule: Q04DX003 (ip), vehicle: saline",160 % of control
same,T/C,"dose: 1.1 mg/kg/injection, schedule: Q01DX001 (ip), vehicle: saline",125 % of control
same,T/C,"dose: 1.16 mg/kg/injection, schedule: Q01DX009 (ip), vehicle: saline","213, 254, 255 % of control"
same,T/C,"dose: 1.19 mg/kg/injection, schedule: Q01DX001 (ip), vehicle: saline",109 % of control
same,T/C,"dose: 1.6 mg/kg/injection, schedule: Q04DX003 (ip), vehicle: saline",180 and 250 % of control
same,T/C,"dose: 1.74 mg/kg/injection, schedule: Q01DX009 (ip), vehicle: saline",195 and 254 % of control
same,T/C,"dose: 1.79 mg/kg/injection, schedule: Q01DX001 (ip), vehicle: saline","109, 135, 141 % of control"
same,T/C,"dose: 2.33 mg/kg/injection, schedule: Q01DX009 (ip), vehicle: saline",125 % of control
same,T/C,"dose: 2.4 mg/kg/injection, schedule: Q04DX003 (ip), vehicle: saline",210 % of control
same,T/C,"dose: 2.6 mg/kg/injection, schedule: Q01DX001 (ip), vehicle: saline",150 % of control
same,T/C,"dose: 2.68 mg/kg/injection, schedule: Q01DX001 (ip), vehicle: saline",131 % of control
same,T/C,"dose: 3.4 mg/kg/injection, schedule: Q01DX009 (ip), vehicle: saline",105 % of control
same,T/C,"dose: 3.59 mg/kg/injection, schedule: Q01DX001 (ip), vehicle: saline",110 % of control
same,survivor count,"dose: 5.2 mg/kg/injection, schedule: Q01DX009 (ip), vehicle: saline",6 of 6
same,survivor count,"dose: 7.8 mg/kg/injection, schedule: Q01DX009 (ip), vehicle: saline",6 of 6
O=Nc1ccc(N(CCCl)CCCl)cc1,T/C,"dose: 0.78 mg/kg/injection, schedule: Q01DX009 (ip), vehicle: saline",141 % of control
same,T/C,"dose: 1.56 mg/kg/injection, schedule: Q01DX009 (ip), vehicle: saline",156 % of control
same,T/C,"dose: 3.12 mg/kg/injection, schedule: Q01DX009 (ip), vehicle: saline",189 % of control
same,T/C,"dose: 3.13 mg/kg/injection, schedule: Q01DX009 (ip), vehicle: saline",125 % of control
same,survivor count,"dose: 6.25 mg/kg/injection, schedule: Q01DX009 (ip), vehicle: saline",6 of 6
same,survivor count,"dose: 12.5 mg/kg/injection, schedule: Q01DX009 (ip), vehicle: saline with Tween-80",4 of 6
same,survivor count,"dose: 12.5 mg/kg/injection, schedule: Q01DX009 (ip), vehicle: saline",3 of 6
same,survivor count,"dose: 25.0 mg/kg/injection, schedule: Q01DX009 (ip), vehicle: saline with Tween-80",0 of 6
same,survivor count,[4],0 of 6
same,survivor count,[5],0 of 6
O=[N+]([O-])C1C(O)C(O)C([N+](=O)[O-])C(O)C1O (stereo not drawn),T/C,"dose: 12.5 mg/kg/injection, schedule: Q01DX005 (ip), vehicle: saline with Tween-80",132 % of control
same,T/C,"dose: 25.0 mg/kg/injection, schedule: Q01DX005 (ip), vehicle: saline with Tween-80",100 % of control
same,survivor count,[6],5 of 5
O=C(Nc1ccc([N+](=O)[O-])cc1[N+](=O)[O-])Nc1ccc([N+](=O)[O-])cc1[N+](=O)[O-],T/C,"dose: 6.25 mg/kg/injection, schedule: Q04DX003 (ip), vehicle: saline",109 % of control
same,T/C,"dose: 12.5 mg/kg/injection, schedule: Q04DX003 (ip), vehicle: saline",104 % of control
same,T/C,"dose: 25.0 mg/kg/injection, schedule: Q04DX003 (ip), vehicle: saline",95 % of control
C1CCCC2NC2CC1.O=[N+]([O-])c1cc([N+](=O)[O-])c(O)c([N+](=O)[O-])c1,T/C,"dose: 50.0 mg/kg/injection, schedule: Q04DX003 (ip), vehicle: saline with Tween-80",109 % of control [survivor count not shown]
same,T/C,"dose: 100.0 mg/kg/injection, schedule: Q04DX003 (ip), vehicle: saline with Tween-80",109 % of control [survivor count not shown]
same,T/C,"dose: 200.0 mg/kg/injection, schedule: Q04DX003 (ip), vehicle: saline with Tween-80",109 % of control [survivor count not shown]
CC1(C)CC[P+](CCC[P+]2(c3ccccc3)CCC(C)(C)c3ccccc32)(c2ccccc2)c2ccccc21.F[P-](F)(F)(F)(F)F (stereo not drawn),survivor count,[6],0 of 6
same,survivor count,"dose: 100.0 mg/kg/injection, schedule: Q01DX005 (ip), vehicle: saline with Tween-80",0 of 6
same,survivor count,"dose: 200.0 mg/kg/injection, schedule: Q01DX005 (ip), vehicle: saline with Tween-80",0 of 6
NC(=O)c1cc(I)cc(I)c1N=NN(CCCl)CCCl,T/C,[2],115 % of control
same,T/C,[3],123 % of control
same,T/C,[7],133 % of control
N#C/C(=C\c1ccccc1Cc1ccccn1)c1ccccc1.O=[N+]([O-])c1cc([N+](=O)[O-])c(O)c([N+](=O)[O-])c1,T/C,[3],95 % of control [survivor count not shown]
same,T/C,[7],95 % of control [survivor count not shown]
ClCCNCCCCCNCCCl,T/C,"dose: 132.0 mg/kg/injection, schedule: Q04DX003 (ip), vehicle: saline",177 % of control
same,T/C,"dose: 200.0 mg/kg/injection, schedule: Q04DX003 (ip), vehicle: saline",209 % of control
same,T/C,"dose: 300.0 mg/kg/injection, schedule: Q04DX003 (ip), vehicle: saline",227 % of control
O=[N+]([O-])c1ccc2nn([N+](=O)[O-])c(Cl)c2c1,T/C,[4],97 % of control
same,T/C,[5],95 % of control
same,T/C,"dose: 200.0 mg/kg/injection, schedule: Q01DX009 (ip), vehicle: saline with Tween-80",106 % of control

# From PubChem BioAssay AID328 (DTP/NCI, 2004)
